Laboratory results as given in paper PMC9537141.
Results are given in words; binding and its absence hold for the method and conditions named. For some of these results: Binding seen in cells or lysates may run through a third protein. Some results given as binding are weak or reduced against the parent protein; the word gives no strength.

Amino acid sequences for entries named in this document (tags omitted). Residues count along the entry.
UniProt Q99623: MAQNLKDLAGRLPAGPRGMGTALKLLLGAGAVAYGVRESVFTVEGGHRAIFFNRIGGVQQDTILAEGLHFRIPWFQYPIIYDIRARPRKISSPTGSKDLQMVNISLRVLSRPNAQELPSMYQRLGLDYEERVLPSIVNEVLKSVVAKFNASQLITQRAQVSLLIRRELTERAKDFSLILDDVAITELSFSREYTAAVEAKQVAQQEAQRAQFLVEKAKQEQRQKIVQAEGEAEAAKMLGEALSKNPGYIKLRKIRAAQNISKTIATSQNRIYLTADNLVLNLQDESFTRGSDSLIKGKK
UniProt P09103, residues 20-509: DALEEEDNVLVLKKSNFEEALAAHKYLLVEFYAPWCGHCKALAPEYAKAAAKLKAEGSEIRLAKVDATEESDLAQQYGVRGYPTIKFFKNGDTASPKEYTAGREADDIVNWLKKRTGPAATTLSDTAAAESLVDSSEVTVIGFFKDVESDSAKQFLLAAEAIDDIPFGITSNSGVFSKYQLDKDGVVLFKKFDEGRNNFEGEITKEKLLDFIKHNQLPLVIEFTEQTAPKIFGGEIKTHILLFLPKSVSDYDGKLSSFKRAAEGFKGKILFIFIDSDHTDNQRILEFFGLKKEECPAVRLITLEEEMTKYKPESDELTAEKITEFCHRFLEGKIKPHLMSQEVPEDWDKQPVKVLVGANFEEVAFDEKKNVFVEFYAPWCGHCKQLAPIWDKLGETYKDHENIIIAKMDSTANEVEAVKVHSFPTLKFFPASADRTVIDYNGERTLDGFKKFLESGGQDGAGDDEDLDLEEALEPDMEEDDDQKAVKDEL
UniProt P11021, residues 19-654: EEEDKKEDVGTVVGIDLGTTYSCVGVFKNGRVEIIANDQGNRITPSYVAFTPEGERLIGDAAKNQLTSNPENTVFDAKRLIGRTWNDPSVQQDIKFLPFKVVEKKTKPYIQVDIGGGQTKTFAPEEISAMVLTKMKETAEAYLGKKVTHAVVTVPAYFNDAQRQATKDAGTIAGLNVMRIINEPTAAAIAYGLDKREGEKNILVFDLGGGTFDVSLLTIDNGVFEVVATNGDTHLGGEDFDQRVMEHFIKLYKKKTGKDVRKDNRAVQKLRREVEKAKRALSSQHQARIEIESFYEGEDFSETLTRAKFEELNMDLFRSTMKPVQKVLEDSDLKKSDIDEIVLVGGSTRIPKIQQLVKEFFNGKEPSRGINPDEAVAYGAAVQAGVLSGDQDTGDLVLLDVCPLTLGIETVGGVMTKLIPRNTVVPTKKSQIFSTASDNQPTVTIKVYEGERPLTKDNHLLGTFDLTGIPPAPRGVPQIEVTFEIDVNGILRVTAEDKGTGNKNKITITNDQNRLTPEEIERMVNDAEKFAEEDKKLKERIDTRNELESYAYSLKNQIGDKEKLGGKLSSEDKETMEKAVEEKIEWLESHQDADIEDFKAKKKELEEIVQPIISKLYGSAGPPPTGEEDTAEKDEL
UniProt P20029, residues 20-655: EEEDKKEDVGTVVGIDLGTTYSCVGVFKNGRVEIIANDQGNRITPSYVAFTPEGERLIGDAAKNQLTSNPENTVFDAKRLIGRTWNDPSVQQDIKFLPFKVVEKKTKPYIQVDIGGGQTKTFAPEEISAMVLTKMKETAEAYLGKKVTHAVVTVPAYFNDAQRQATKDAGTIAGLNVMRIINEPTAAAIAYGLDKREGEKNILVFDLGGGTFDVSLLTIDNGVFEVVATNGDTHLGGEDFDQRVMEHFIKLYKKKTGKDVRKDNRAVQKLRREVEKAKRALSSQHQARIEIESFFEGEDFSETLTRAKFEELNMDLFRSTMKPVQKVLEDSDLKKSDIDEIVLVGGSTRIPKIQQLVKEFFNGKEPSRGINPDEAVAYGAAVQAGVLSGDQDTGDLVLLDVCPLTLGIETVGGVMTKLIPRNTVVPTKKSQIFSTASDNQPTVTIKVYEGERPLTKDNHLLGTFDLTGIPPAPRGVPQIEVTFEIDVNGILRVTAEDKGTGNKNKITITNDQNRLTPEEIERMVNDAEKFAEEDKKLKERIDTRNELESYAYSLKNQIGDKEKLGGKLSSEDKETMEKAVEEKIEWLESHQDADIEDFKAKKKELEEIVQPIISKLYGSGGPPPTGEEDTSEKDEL
UniProt P07237, residues 18-508: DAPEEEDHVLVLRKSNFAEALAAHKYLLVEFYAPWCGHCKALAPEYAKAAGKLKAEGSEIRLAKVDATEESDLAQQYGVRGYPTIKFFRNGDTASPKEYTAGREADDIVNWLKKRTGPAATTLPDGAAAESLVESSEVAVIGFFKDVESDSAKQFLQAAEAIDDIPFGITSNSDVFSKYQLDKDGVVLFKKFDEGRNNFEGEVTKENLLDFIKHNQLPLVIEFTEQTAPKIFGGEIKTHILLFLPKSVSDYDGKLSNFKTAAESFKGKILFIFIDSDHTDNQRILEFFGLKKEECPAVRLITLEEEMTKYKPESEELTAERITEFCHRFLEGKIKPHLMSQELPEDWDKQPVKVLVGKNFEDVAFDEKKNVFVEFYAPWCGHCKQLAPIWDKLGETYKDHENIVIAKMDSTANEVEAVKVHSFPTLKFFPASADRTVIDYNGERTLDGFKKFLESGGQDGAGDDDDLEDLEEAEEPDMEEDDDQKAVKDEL
UniProt O35129: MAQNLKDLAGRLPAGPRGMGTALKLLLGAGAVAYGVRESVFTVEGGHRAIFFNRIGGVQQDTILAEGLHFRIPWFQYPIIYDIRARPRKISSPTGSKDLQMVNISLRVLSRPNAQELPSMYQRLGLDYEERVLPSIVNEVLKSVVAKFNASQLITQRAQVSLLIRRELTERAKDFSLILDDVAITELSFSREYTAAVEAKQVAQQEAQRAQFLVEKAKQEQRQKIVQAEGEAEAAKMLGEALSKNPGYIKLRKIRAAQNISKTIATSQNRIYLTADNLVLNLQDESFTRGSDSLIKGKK

Legend:
Flag-PHB2, purified = Flag-PHB2, purified (UniProt Q99623); assay: pull-down; Flag-pull down in vitro: purified Flag-PHB2 or Myc-PDI immobilized on the beads, incubated with purified Myc-PDI or Flag-PHB2; 4 h at 4 °C; immunoblot with anti-PDI or anti-PHB2; both purified
[1] = target: Protein disulfide isomerase (PDI), endogenous in MEF cells (mouse (endogenous in MEF)) (UniProt P09103); assay: co-IP; endogenous proteins in lysates of HCT116 or MEF cells, untreated or 24 h after γ-ray (4 Gy) or cisplatin (20 μM); primary antibody or non-specific IgG with protein G-agarose beads, 4 °C overnight, five washes with RIPA buffer; western blot
[2] = target: GRP78, endogenous in HCT116 cells (human (endogenous in HCT116)) (UniProt P11021); assay: as above
[3] = target: GRP78, endogenous in MEF cells (mouse (endogenous in MEF)) (UniProt P20029); assay: as above

## Myc-PDI, purified (from UniProt P07237 18-508)
Flag-PHB2, purified
  binding: binds

## PHB2, endogenous in MEF cells (from UniProt O35129 1-299)
[1]
  binding: binds

## Protein disulfide isomerase (PDI), endogenous in HCT116 cells (from UniProt P07237 18-508)
[2]
  binding: binds

## Protein disulfide isomerase (PDI), endogenous in MEF cells (from UniProt P09103 20-509)
[3]
  binding: binds
